For test [1], the target named is T1, NNMT-GFP, full length (human) (UniProt P40261).
T1 sequence: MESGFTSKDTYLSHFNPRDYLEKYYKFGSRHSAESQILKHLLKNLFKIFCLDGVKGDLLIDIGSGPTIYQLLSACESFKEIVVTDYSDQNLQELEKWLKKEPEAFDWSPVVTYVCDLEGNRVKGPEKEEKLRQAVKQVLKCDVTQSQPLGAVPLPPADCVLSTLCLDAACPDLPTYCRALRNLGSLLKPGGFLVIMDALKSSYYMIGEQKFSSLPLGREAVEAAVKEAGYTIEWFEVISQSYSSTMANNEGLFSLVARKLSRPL
In words: co-IP; tagged proteins co-expressed in HEK293T cells; IP lysis buffer (20 mM Tris-HCl pH 7.4, 137 mM NaCl, 0.5% NP-40, 0.5 mM EDTA); Flag beads or GFP antibody with protein A/G agarose; immunoblot. On the technique in general: In western blotting, separated proteins are transferred to a membrane and probed.

In test [2] the target is T2, NNMT-HA (nicotinamide N-methyltransferase) (human) (UniProt P40261).
T2 sequence: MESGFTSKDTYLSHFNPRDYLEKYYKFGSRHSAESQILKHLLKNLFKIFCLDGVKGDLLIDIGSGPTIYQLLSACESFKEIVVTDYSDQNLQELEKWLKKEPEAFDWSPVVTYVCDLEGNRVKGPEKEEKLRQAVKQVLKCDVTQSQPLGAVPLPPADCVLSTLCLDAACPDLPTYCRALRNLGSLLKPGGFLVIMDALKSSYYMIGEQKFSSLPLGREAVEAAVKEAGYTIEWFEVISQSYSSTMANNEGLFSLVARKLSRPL
The test is described as above.

For test [3], the target named is T3, endogenous NNMT (SKOV3, A2780) (human (endogenous in SKOV3 and A2780)) (UniProt P40261).
T3 sequence: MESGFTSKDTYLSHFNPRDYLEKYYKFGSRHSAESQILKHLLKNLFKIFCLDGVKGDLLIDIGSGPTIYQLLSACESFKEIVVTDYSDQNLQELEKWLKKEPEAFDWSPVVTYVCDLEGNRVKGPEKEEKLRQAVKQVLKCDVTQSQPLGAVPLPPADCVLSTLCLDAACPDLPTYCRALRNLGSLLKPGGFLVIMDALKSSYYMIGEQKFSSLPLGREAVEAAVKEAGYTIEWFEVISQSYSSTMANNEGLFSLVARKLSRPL
In words: co-IP; endogenous proteins in SKOV3 and A2780 cells, reciprocal IP, immunoblot.

Test [4] concerns the target T1, NNMT-GFP, full length (human). In words: co-IP; NNMT-GFP co-expressed with TRIM56-Myc and/or PRDX6-Flag in A2780 cells, MG132 treatment, IP with GFP antibody, immunoblot.

No constants are given. Whether binding was seen depends on the method and setting. Binding seen in cells or lysates may run through a third protein. Some results given as binding are weak or reduced against the parent protein; the word gives no strength. For part of these data: Tags and fused reporters may be left off the sequences shown.

B1: PRDX6-Flag (wild-type peroxiredoxin 6) (enzyme, UniProt P30041 1-224)
chain: MPGGLLLGDVAPNFEANTTVGRIRFHDFLGDSWGILFSHPRDFTPVCTTELGRAAKLAPEFAKRNVKLIALSIDSVEDHLAWSKDINAYNCEEPTEKLPFPIIDDRNRELAILLGMLDPAEKDEKGMPVTARVVFVFGPDKKLKLSILYPATTGRNFDEILRVVISLQLTAEKRVATPVDWKDGDSVMVLPTIPEEEAKKLFPKGVFTKELPSGKKYLRYTPQP
B1: the binding result in test [1] and in test [2] was “binds” each time.

B2: endogenous PRDX6 (enzyme, UniProt P30041 1-224)
chain: MPGGLLLGDVAPNFEANTTVGRIRFHDFLGDSWGILFSHPRDFTPVCTTELGRAAKLAPEFAKRNVKLIALSIDSVEDHLAWSKDINAYNCEEPTEKLPFPIIDDRNRELAILLGMLDPAEKDEKGMPVTARVVFVFGPDKKLKLSILYPATTGRNFDEILRVVISLQLTAEKRVATPVDWKDGDSVMVLPTIPEEEAKKLFPKGVFTKELPSGKKYLRYTPQP
As to B2, the binding entry in test [3] is given as “binds”.

B3: PRDX6-MUT (C47S/S32A/D31A), enzymatically dead mutant of PRDX6 (enzyme, UniProt P30041 1-224)
chain: MPGGLLLGDVAPNFEANTTVGRIRFHDFLGAAWGILFSHPRDFTPVSTTELGRAAKLAPEFAKRNVKLIALSIDSVEDHLAWSKDINAYNCEEPTEKLPFPIIDDRNRELAILLGMLDPAEKDEKGMPVTARVVFVFGPDKKLKLSILYPATTGRNFDEILRVVISLQLTAEKRVATPVDWKDGDSVMVLPTIPEEEAKKLFPKGVFTKELPSGKKYLRYTPQP
On to B3, for which the binding result in test [1] is listed as “binds”.

B4: TRIM56-Myc (enzyme, UniProt Q9BRZ2 1-755)
chain: MVSHGSSPSLLEALSSDFLACKICLEQLRAPKTLPCLHTYCQDCLAQLADGGRVRCPECRETVPVPPEGVASFKTNFFVNGLLDLVKARACGDLRAGKPACALCPLVGGTSTGGPATARCLDCADDLCQACADGHRCTRQTHTHRVVDLVGYRAGWYDEEARERQAAQCPQHPGEALRFLCQPCSQLLCRECRLDPHLDHPCLPLAEAVRARRPGLEGLLAGVDNNLVELEAARRVEKEALARLREQAARVGTQVEEAAEGVLRALLAQKQEVLGQLRAHVEAAEEAARERLAELEGREQVARAAAAFARRVLSLGREAEILSLEGAIAQRLRQLQGCPWAPGPAPCLLPQLELHPGLLDKNCHLLRLSFEEQQPQKDGGKDGAGTQGGEESQSRREDEPKTERQGGVQPQAGDGAQTPKEEKAQTTREEGAQTLEEDRAQTPHEDGGPQPHRGGRPNKKKKFKGRLKSISREPSPALGPNLDGSGLLPRPIFYCSFPTRMPGDKRSPRITGLCPFGPREILVADEQNRALKRFSLNGDYKGTVPVPEGCSPCSVAALQSAVAFSASARLYLINPNGEVQWRRALSLSQASHAVAALPSGDRVAVSVAGHVEVYNMEGSLATRFIPGGKASRGLRALVFLTTSPQGHFVGSDWQQNSVVICDGLGQVVGEYKGPGLHGCQPGSVSVDKKGYIFLTLREVNKVVILDPKGSLLGDFLTAYHGLEKPRVTTMVDGRYLVVSLSNGTIHIFRVRSPDS
For B4, the binding result in test [1] and in test [4] was “binds” in each case.

The values above are taken from article PMC11948025.
